Results taken from article PMC8384837.
Numbering of substitutions follows the chain as printed. Some of the results follow. For some assays here: At the low end of the ranking the order means little. For some assays here: The exact form of the protein is not confirmed.

Legend:
Details in all cases: yeast three-hybrid, YBZ-1, SC-Leu-His + 0.5 mM 3-AT, 4 days
[1] = target: T1, PUM1 PUF domain R5-GVD C1007G + R1008V + Q1011D (Homo sapiens) (UniProt Q14671)
T1 sequence: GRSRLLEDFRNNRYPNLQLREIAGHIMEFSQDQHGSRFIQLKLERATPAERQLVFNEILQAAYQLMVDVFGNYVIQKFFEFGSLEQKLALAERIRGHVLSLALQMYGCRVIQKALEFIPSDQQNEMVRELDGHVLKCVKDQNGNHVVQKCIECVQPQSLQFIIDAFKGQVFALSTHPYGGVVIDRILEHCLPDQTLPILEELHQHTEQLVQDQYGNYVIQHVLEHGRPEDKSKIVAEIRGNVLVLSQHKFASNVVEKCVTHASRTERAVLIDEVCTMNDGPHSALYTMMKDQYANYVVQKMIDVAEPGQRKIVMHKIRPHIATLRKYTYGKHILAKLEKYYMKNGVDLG

[2] = target: T2, PUM1 PUF domain R5-GVE C1007G + R1008V + Q1011E (UniProt Q14671)
T2 sequence: T1 sequence with D184E

[3] = target: T3, PUM1 PUF domain R5-GYV C1007G + R1008Y + Q1011V (UniProt Q14671)
T3 sequence: T1 sequence with V181Y, D184V

[4] = target: T4, PUM1 PUF domain R5-HLY C1007H + R1008L + Q1011Y (UniProt Q14671)
T4 sequence: T1 sequence with G180H, V181L, D184Y

[5] = target: T5, PUM1 PUF domain R5-IRP C1007I + Q1011P (UniProt Q14671)
T5 sequence: T1 sequence with G180I, V181R, D184P

[6] = target: T6, PUM1 PUF domain R5-ISR C1007I + R1008S + Q1011R (Homo sapiens) (UniProt Q14671)
T6 sequence: T1 sequence with G180I, V181S, D184R

[7] = target: T7, PUM1 PUF domain R5-KLC C1007K + R1008L + Q1011C (Homo sapiens) (UniProt Q14671)
T7 sequence: T1 sequence with G180K, V181L, D184C

[8] = target: T8, PUM1 PUF domain R5-KLH C1007K + R1008L + Q1011H (Homo sapiens) (UniProt Q14671)
T8 sequence: T1 sequence with G180K, V181L, D184H

[9] = target: T9, PUM1 PUF domain R5-KMV C1007K + R1008M + Q1011V (Homo sapiens) (UniProt Q14671)
T9 sequence: T1 sequence with G180K, V181M, D184V

[10] = target: T10, PUM1 PUF domain R5-KQD C1007K + R1008Q + Q1011D (Homo sapiens) (UniProt Q14671)
T10 sequence: T1 sequence with G180K, V181Q

[11] = target: T11, PUM1 PUF domain R5-KTV C1007K + R1008T + Q1011V (Homo sapiens) (UniProt Q14671)
T11 sequence: T1 sequence with G180K, V181T, D184V

[12] = target: T12, PUM1 PUF domain R5-KVE C1007K + R1008V + Q1011E (Homo sapiens) (UniProt Q14671)
T12 sequence: T1 sequence with G180K, D184E

[13] = target: T13, PUM1 PUF domain R5-KWG C1007K + R1008W + Q1011G (Homo sapiens) (UniProt Q14671)
T13 sequence: T1 sequence with G180K, V181W, D184G

[14] = target: T14, PUM1 PUF domain R5-LFQ C1007L + R1008F (Homo sapiens) (UniProt Q14671)
T14 sequence: T1 sequence with G180L, V181F, D184Q

[15] = target: T15, PUM1 PUF domain R5-LSR C1007L + R1008S + Q1011R (Homo sapiens) (UniProt Q14671)
T15 sequence: T1 sequence with G180L, V181S, D184R

[16] = target: T16, PUM1 PUF domain R5-LWR C1007L + R1008W + Q1011R (Homo sapiens) (UniProt Q14671)
T16 sequence: T1 sequence with G180L, V181W, D184R

[17] = target: T17, PUM1 PUF domain R5-LYL C1007L + R1008Y + Q1011L (Homo sapiens) (UniProt Q14671)
T17 sequence: T1 sequence with G180L, V181Y, D184L

[18] = target: T18, PUM1 PUF domain R5-LYM C1007L + R1008Y + Q1011M (Homo sapiens) (UniProt Q14671)
T18 sequence: T1 sequence with G180L, V181Y, D184M

[19] = target: T19, PUM1 PUF domain R5-MGR C1007M + R1008G + Q1011R (Homo sapiens) (UniProt Q14671)
T19 sequence: T1 sequence with G180M, V181G, D184R

[20] = target: T20, PUM1 PUF domain R5-MSR C1007M + R1008S + Q1011R (Homo sapiens) (UniProt Q14671)
T20 sequence: T1 sequence with G180M, V181S, D184R

[21] = target: T21, PUM1 PUF domain R5-PHQ R6-SWD C1007P + R1008H + N1043S + Y1044W + Q1047D (UniProt Q14671)
T21 sequence: T1 sequence with G180P, V181H, D184Q, N216S, Y217W, Q220D

[22] = target: T22, PUM1 PUF domain R5-PRC C1007P + Q1011C (UniProt Q14671)
T22 sequence: T1 sequence with G180P, V181R, D184C

[23] = target: T23, PUM1 PUF domain R5-QCL C1007Q + R1008C + Q1011L (Homo sapiens) (UniProt Q14671)
T23 sequence: T1 sequence with G180Q, V181C, D184L

With “GGCUAGAACUAGUGGAUCCCCCGGCGCCCGGCGGCUCGAGCCCGGGUAAGUGUUAAUAGUCUGCAUGCCGCCGGGCGCCAUGCCUGCAGGUCGACUCUAGAAAACAUG” the binding signal (log2 enrichment (interaction score)) [1] was -1.63, the binding signal (log2 enrichment (interaction score)) [2] was < -7.14 and the binding signal (log2 enrichment (interaction score)) [3] was -6.6. The binding signal (log2 enrichment (interaction score)) [4] was < -9.84, the binding signal (log2 enrichment (interaction score)) [5] was -2.5 and the binding signal (log2 enrichment (interaction score)) [6] was -1.12. For the same sequence, the binding signal (log2 enrichment (interaction score)) [7] was 0.05, the binding signal (log2 enrichment (interaction score)) [8] was -1.79 and the binding signal (log2 enrichment (interaction score)) [9] was -0.07. For the same sequence, the binding signal (log2 enrichment (interaction score)) [10] was -0.05, the binding signal (log2 enrichment (interaction score)) [11] was 0.3 and the binding signal (log2 enrichment (interaction score)) [12] was -1.1. For the same sequence, the binding signal (log2 enrichment (interaction score)) [13] was -0.59, the binding signal (log2 enrichment (interaction score)) [14] was -0.09 and the binding signal (log2 enrichment (interaction score)) [15] was -1.73. The binding signal (log2 enrichment (interaction score)) [16] was -0.91, the binding signal (log2 enrichment (interaction score)) [17] was 0.11 and the binding signal (log2 enrichment (interaction score)) [18] was 0.4. For the same sequence, the binding signal (log2 enrichment (interaction score)) [19] was -0.18, the binding signal (log2 enrichment (interaction score)) [20] was -0.29 and the binding signal (log2 enrichment (interaction score)) [21] was -8.45. For the same sequence, the binding signal (log2 enrichment (interaction score)) [22] was -5.56 and the binding signal (log2 enrichment (interaction score)) [23] was -0.62.
